Test results taken from paper doi:10.1101/2022.03.17.484727.
Read-outs that look alike come from different tables or passages of the source. No constants are given. Whether binding was seen depends on the method and setting. In cells and extracts the contact can be indirect. Here binding means that the protein was enriched with, or labelled near, the bait; the list need not be complete.

Chains of the proteins cited; added tags and fusions are not shown. Lines headed by an entry give the natural chain unless they say otherwise; changes in a name come on top.
UniProt Q14258: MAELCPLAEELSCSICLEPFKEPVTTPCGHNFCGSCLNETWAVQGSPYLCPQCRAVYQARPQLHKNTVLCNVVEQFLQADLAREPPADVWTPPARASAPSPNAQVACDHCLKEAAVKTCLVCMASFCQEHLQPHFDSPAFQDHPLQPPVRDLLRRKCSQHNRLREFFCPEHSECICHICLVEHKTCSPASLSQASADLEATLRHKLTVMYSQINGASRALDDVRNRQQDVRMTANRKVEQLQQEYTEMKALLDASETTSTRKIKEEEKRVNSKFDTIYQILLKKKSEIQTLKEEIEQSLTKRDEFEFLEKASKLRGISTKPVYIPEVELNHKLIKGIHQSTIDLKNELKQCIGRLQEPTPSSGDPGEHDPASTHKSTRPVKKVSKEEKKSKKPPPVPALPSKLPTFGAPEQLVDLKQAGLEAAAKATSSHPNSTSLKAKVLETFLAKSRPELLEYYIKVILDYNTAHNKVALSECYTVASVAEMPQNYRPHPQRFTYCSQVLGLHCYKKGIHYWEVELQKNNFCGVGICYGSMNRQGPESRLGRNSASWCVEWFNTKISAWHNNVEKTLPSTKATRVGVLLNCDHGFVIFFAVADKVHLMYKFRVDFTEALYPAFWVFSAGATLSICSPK
UniProt P15531: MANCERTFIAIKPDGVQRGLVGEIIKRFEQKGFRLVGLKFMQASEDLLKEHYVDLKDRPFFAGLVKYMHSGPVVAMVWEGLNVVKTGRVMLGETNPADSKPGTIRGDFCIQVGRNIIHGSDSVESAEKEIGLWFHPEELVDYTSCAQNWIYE

What was measured:
Assay in all cases: affinity purification with mass spectrometry
[1] = target: FLAG-tagged TRIM25-R54P (human) (UniProt Q14258)
[2] = target: FLAG-tagged TRIM25 wild-type (human) (UniProt Q14258)
[3] = target: FLAG-tagged TRIM25-R54P (human) (UniProt Q14258); remark: listed apart in the source
[4] = target: FLAG-tagged TRIM25 wild-type (human) (UniProt Q14258); remark: listed apart in the source

Molecule	binding [1]	binding [2]	binding [3]	binding [4]
endogenous NME1 (from UniProt P15531 1-152) (enzyme)	binds	binds	–	–
endogenous G3BP1 (from UniProt Q13283 1-466)	binds	binds	–	–
MOV10 (protein, UniProt Q9HCE1 1-1003) MPSKFSCRQLREAGQCFESFLVVRGLDMETDRERLRTIYNRDFKISFGTPAPGFSSMLYGMKIANLAYVTKTRVRFFRLDRWADVRFPEKRRMKLGSDISKHHKSLLAKIFYDRAEYLHGKHGVDVEVQGPHEARDGQLLIRLDLNRKEVLTLRLRNGGTQSVTLTHLFPLCRTPQFAFYNEDQELPCPLGPGECYELHVHCKTSFVGYFPATVLWELLGPGESGSEGAGTFYIARFLAAVAHSPLAAQLKPMTPFKRTRITGNPVVTNRIEEGERPDRAKGYDLELSMALGTYYPPPRLRQLLPMLLQGTSIFTAPKEIAEIKAQLETALKWRNYEVKLRLLLHLEELQMEHDIRHYDLESVPMTWDPVDQNPRLLTLEVPGVTESRPSVLRGDHLFALLSSETHQEDPITYKGFVHKVELDRVKLSFSMSLLSRFVDGLTFKVNFTFNRQPLRVQHRALELTGRWLLWPMLFPVAPRDVPLLPSDVKLKLYDRSLESNPEQLQAMRHIVTGTTRPAPYIIFGPPGTGKTVTLVEAIKQVVKHLPKAHILACAPSNSGADLLCQRLRVHLPSSIYRLLAPSRDIRMVPEDIKPCCNWDAKKGEYVFPAKKKLQEYRVLITTLITAGRLVSAQFPIDHFTHIFIDEAGHCMEPESLVAIAGLMEVKETGDPGGQLVLAGDPRQLGPVLRSPLTQKHGLGYSLLERLLTYNSLYKKGPDGYDPQFITKLLRNYRSHPTILDIPNQLYYEGELQACADVVDRERFCRWAGLPRQGFPIIFHGVMGKDEREGNSPSFFNPEEAATVTSYLKLLLAPSSKKGKARLSPRSVGVISPYRKQVEKIRYCITKLDRELRGLDDIKDLKVGSVEEFQGQERSVILISTVRSSQSFVQLDLDFNLGFLKNPKRFNVAVTRAKALLIIVGNPLLLGHDPDWKVFLEFCKENGGYTGCPFPAKLDLQQGQNLLQGLSKLSPSTSGPHSHDYLPQEREGEGGLSLQVEPEWRNEL	–	–	binds	–
endogenous UPF1 (protein, UniProt Q92900 1-1129) MSVEAYGPSSQTLTFLDTEEAELLGADTQGSEFEFTDFTLPSQTQTPPGGPGGPGGGGAGGPGGAGAGAAAGQLDAQVGPEGILQNGAVDDSVAKTSQLLAELNFEEDEEDTYYTKDLPIHACSYCGIHDPACVVYCNTSKKWFCNGRGNTSGSHIVNHLVRAKCKEVTLHKDGPLGETVLECYNCGCRNVFLLGFIPAKADSVVVLLCRQPCASQSSLKDINWDSSQWQPLIQDRCFLSWLVKIPSEQEQLRARQITAQQINKLEELWKENPSATLEDLEKPGVDEEPQHVLLRYEDAYQYQNIFGPLVKLEADYDKKLKESQTQDNITVRWDLGLNKKRIAYFTLPKTDSGNEDLVIIWLRDMRLMQGDEICLRYKGDLAPLWKGIGHVIKVPDNYGDEIAIELRSSVGAPVEVTHNFQVDFVWKSTSFDRMQSALKTFAVDETSVSGYIYHKLLGHEVEDVIIKCQLPKRFTAQGLPDLNHSQVYAVKTVLQRPLSLIQGPPGTGKTVTSATIVYHLARQGNGPVLVCAPSNIAVDQLTEKIHQTGLKVVRLCAKSREAIDSPVSFLALHNQIRNMDSMPELQKLQQLKDETGELSSADEKRYRALKRTAERELLMNADVICCTCVGAGDPRLAKMQFRSILIDESTQATEPECMVPVVLGAKQLILVGDHCQLGPVVMCKKAAKAGLSQSLFERLVVLGIRPIRLQVQYRMHPALSAFPSNIFYEGSLQNGVTAADRVKKGFDFQWPQPDKPMFFYVTQGQEEIASSGTSYLNRTEAANVEKITTKLLKAGAKPDQIGIITPYEGQRSYLVQYMQFSGSLHTKLYQEVEIASVDAFQGREKDFIILSCVRANEHQGIGFLNDPRRLNVALTRARYGVIIVGNPKALSKQPLWNHLLNYYKEQKVLVEGPLNNLRESLMQFSKPRKLVNTINPGARFMTTAMYDAREAIIPGSVYDRSSQGRPSSMYFQTHDQIGMISAGPSHVAAMNIPIPFNLVMPPMPPPGYFGQANGPAAGRGTPKGKTGRGGRQKNRFGLPGPSQTNLPNSQASQDVASQPFSQGALTQGYISMSQPSQMSQPGLSQPELSQDSYLGDEFKSQIDVALSQDSTYQGERAYQHGGVTGLSQY	–	–	binds	binds
endogenous G3BP2 (protein, UniProt Q9UN86 1-482) MVMEKPSPLLVGREFVRQYYTLLNKAPEYLHRFYGRNSSYVHGGVDASGKPQEAVYGQNDIHHKVLSLNFSECHTKIRHVDAHATLSDGVVVQVMGLLSNSGQPERKFMQTFVLAPEGSVPNKFYVHNDMFRYEDEVFGDSEPELDEESEDEVEEEQEERQPSPEPVQENANSGYYEAHPVTNGIEEPLEESSHEPEPEPESETKTEELKPQVEEKNLEELEEKSTTPPPAEPVSLPQEPPKAFSWASVTSKNLPPSGTVSSSGIPPHVKAPVSQPRVEAKPEVQSQPPRVREQRPRERPGFPPRGPRPGRGDMEQNDSDNRRIIRYPDSHQLFVGNLPHDIDENELKEFFMSFGNVVELRINTKGVGGKLPNFGFVVFDDSEPVQRILIAKPIMFRGEVRLNVEEKKTRAARERETRGGGDDRRDIRRNDRGPGGPRGIVGGGMMRDRDGRGPPPRGGMAQKLGSGRGTGQMEGRFTGQRR	–	–	binds	binds
RTRAF (protein, UniProt Q9Y224 1-244) MFRRKLTALDYHNPAGFNCKDETEFRNFIVWLEDQKIRHYKIEDRGNLRNIHSSDWPKFFEKYLRDVNCPFKIQDRQEAIDWLLGLAVRLEYGDNAEKYKDLVPDNSKTADNATKNAEPLINLDVNNPDFKAGVMALANLLQIQRHDDYLVMLKAIRILVQERLTQDAVAKANQTKEGLPVALDKHILGFDTGDAVLNEAAQILRLLHIEELRELQTKINEAIVAVQAIIADPKTDHRLGKVGR	–	–	binds	–
